# Source: the supplement of paper PMC8728848
# The other results are listed elsewhere or left out.
# B1: Gal 12 (Homo sapiens), Q96DT0 (protein)
# chain: MSQPSGGRAPGTRIYSWSCPTVMSPGEKLDPIPDSFILQPPVFHPVVPYVTTIFGGLHAGKMVMLQGVVPLDAHRFQVDFQCGCSLCPRPDIAFHFNPRFHTTKPHVICNTLHGGRWQREARWPHLALRRGSSFLILFLFGNEEVKVSVNGQHFLHFRYRLPLSHVDTLGIFGDILVEAVGFLNINPFVEGSREYPAGHPFLLMSPRLEVPCSHALPQGLSPGQVIIVRGLVLQEPKHFTVSLRDQAAHAPVTLRASFADRTLAWISRWGQKKLISAPFLFYPQRFFEVLLLFQEGGLKLALNGQGLGATSMNQQALEQLRELRISGSVQLYCVHS
# Legend:
# Assay in all cases: glycan array binding signal (z-score within array); higher = stronger binding
# Settings in all cases: glycan notation: IUPAC condensed, linker removed
# [1] = biological target: GlcA(b1-3)Gal
# Summary of the method: (§1)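 The Consortium for Functional Glycomics database supplied 3228 glycan arrays, of which those lacking an available protein sequence were dropped. The binding signal, a within-array Z-score, was averaged across arrays of the same protein sequence and across linkers. Negative scores can be read as non-binding.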
# [2] = biological target: GlcA(b1-3)GlcNAc
# Summary of the method: as §1
# [3] = biological target: GlcA(b1-6)Gal
# Summary of the method: as §1
# [4] = biological target: GlcA3S(b1-3)Gal(b1-4)GlcNAc(b1-2)Man
# Summary of the method: as §1
# [5] = biological target: GlcA3S(b1-3)Gal(b1-4)GlcNAc(b1-3)Gal(b1-4)Glc
# Summary of the method: as §1
# [6] = biological target: GlcNAc(a1-3)Gal(b1-4)GlcNAc
# Summary of the method: as §1
# [7] = biological target: GlcNAc(a1-4)Gal(b1-3)GlcNAc
# Summary of the method: as §1
# [8] = biological target: GlcNAc(a1-4)Gal(b1-4)GalNAc
# Summary of the method: as §1
# [9] = biological target: GlcNAc(a1-4)Gal(b1-4)GlcNAc
# Summary of the method: as §1
# [10] = biological target: GlcNAc(a1-4)Gal(b1-4)GlcNAc(b1-3)Gal(b1-4)Glc
# Summary of the method: as §1
# [11] = biological target: GlcNAc(a1-4)Gal(b1-4)GlcNAc(b1-3)Gal(b1-4)GlcNAc
# Summary of the method: as §1
# [12] = biological target: GlcNAc(a1-4)Gal(b1-4)GlcNAc(b1-3)Gal(b1-4)GlcNAc(b1-3)Gal(b1-4)GlcNAc
# Summary of the method: as §1
# [13] = biological target: GlcNAc(a1-4)Gal(b1-4)GlcNAc(b1-3)Gal(b1-4)[Fuc(a1-3)]GlcNAc(b1-3)Gal(b1-4)[Fuc(a1-3)]GlcNAc
# Summary of the method: as §1
# [14] = biological target: GlcNAc(a1-6)Gal(b1-4)GlcNAc
# Summary of the method: as §1
# [15] = biological target: GlcNAc(b1-2)Gal(b1-3)GalNAc
# Summary of the method: as §1
# [16] = biological target: GlcNAc(b1-2)Man(a1-3)[GlcNAc(b1-2)Man(a1-6)]Man(b1-4)GlcNAc(b1-4)GlcNAc
# Summary of the method: as §1
# [17] = biological target: GlcNAc(b1-2)Man(a1-3)[GlcNAc(b1-2)Man(a1-6)]Man(b1-4)GlcNAc(b1-4)[Fuc(a1-6)]GlcNAc
# Summary of the method: as §1
# [18] = biological target: GlcNAc(b1-2)Man(a1-3)[GlcNAc(b1-4)][GlcNAc(b1-2)Man(a1-6)]Man(b1-4)GlcNAc(b1-4)GlcNAc
# Summary of the method: as §1
# [19] = biological target: GlcNAc(b1-2)Man(a1-3)[GlcNAc(b1-4)][GlcNAc(b1-2)Man(a1-6)]Man(b1-4)GlcNAc(b1-4)[Fuc(a1-6)]GlcNAc
# Summary of the method: as §1
# [20] = biological target: GlcNAc(b1-2)[GlcNAc(b1-4)]Man(a1-3)[GlcNAc(b1-2)Man(a1-6)]Man(b1-4)GlcNAc(b1-4)GlcNAc
# Summary of the method: as §1
# [21] = biological target: GlcNAc(b1-2)[GlcNAc(b1-4)]Man(a1-3)[GlcNAc(b1-4)][GlcNAc(b1-2)Man(a1-6)]Man(b1-4)GlcNAc(b1-4)GlcNAc
# Summary of the method: as §1
# [22] = biological target: GlcNAc(b1-2)[GlcNAc(b1-4)]Man(a1-3)[GlcNAc(b1-4)][GlcNAc(b1-2)[GlcNAc(b1-6)]Man(a1-6)]Man(b1-4)GlcNAc(b1-4)GlcNAc
# Summary of the method: as §1
# [23] = biological target: GlcNAc(b1-2)[GlcNAc(b1-4)]Man(a1-3)[GlcNAc(b1-4)][GlcNAc(b1-2)[GlcNAc(b1-6)]Man(a1-6)]Man(b1-4)GlcNAc(b1-4)[Fuc(a1-6)]GlcNAc
# Summary of the method: as §1
# [24] = biological target: GlcNAc(b1-2)[GlcNAc(b1-6)]Man(a1-6)[GlcNAc(b1-2)Man(a1-3)]Man(b1-4)GlcNAc(b1-4)GlcNAc
# Summary of the method: as §1
# [25] = biological target: GlcNAc(b1-2)[GlcNAc(b1-6)]Man(a1-6)[GlcNAc(b1-2)Man(a1-3)]Man(b1-4)GlcNAc(b1-4)[Fuc(a1-6)]GlcNAc
# Summary of the method: as §1
# [26] = biological target: GlcNAc(b1-2)[GlcNAc(b1-6)]Man(a1-6)[GlcNAc(b1-2)Man(a1-3)][GlcNAc(b1-4)]Man(b1-4)GlcNAc(b1-4)GlcNAc
# Summary of the method: as §1
# [27] = biological target: GlcNAc(b1-2)[GlcNAc(b1-6)]Man(a1-6)[GlcNAc(b1-4)][GlcNAc(b1-2)Man(a1-3)]Man(b1-4)GlcNAc(b1-4)GlcNAc
# Summary of the method: as §1
# [28] = biological target: GlcNAc(b1-3)Fuc
# Summary of the method: as §1
# [29] = biological target: GlcNAc(b1-3)Gal
# Summary of the method: as §1
# [30] = biological target: GlcNAc(b1-3)Gal(b1-3)GalNAc
# Summary of the method: as §1
# [31] = biological target: GlcNAc(b1-3)Gal(b1-4)Glc
# Summary of the method: as §1
# [32] = biological target: GlcNAc(b1-3)Gal(b1-4)GlcNAc
# Summary of the method: as §1
# [33] = biological target: GlcNAc(b1-3)Gal(b1-4)GlcNAc(b1-2)Man(a1-3)[GlcNAc(b1-3)Gal(b1-4)GlcNAc(b1-2)Man(a1-6)]Man(b1-4)GlcNAc(b1-4)GlcNAc
# Summary of the method: as §1
# [34] = biological target: GlcNAc(b1-3)Gal(b1-4)GlcNAc(b1-2)Man(a1-3)[GlcNAc(b1-3)Gal(b1-4)GlcNAc(b1-2)Man(a1-6)]Man(b1-4)GlcNAc(b1-4)[Fuc(a1-6)]GlcNAc
# Summary of the method: as §1
# [35] = biological target: GlcNAc(b1-3)Gal(b1-4)GlcNAc(b1-2)[GlcNAc(b1-3)Gal(b1-4)GlcNAc(b1-6)]Man(a1-6)[GlcNAc(b1-3)Gal(b1-4)GlcNAc(b1-2)Man(a1-3)]Man(b1-4)GlcNAc(b1-4)GlcNAc
# Summary of the method: as §1
# [36] = biological target: GlcNAc(b1-3)Gal(b1-4)GlcNAc(b1-3)Gal(b1-4)GlcNAc
# Summary of the method: as §1
# [37] = biological target: GlcNAc(b1-3)Gal(b1-4)GlcNAc(b1-3)Gal(b1-4)GlcNAc(b1-2)Man(a1-3)[GlcNAc(b1-3)Gal(b1-4)GlcNAc(b1-3)Gal(b1-4)GlcNAc(b1-2)Man(a1-6)]Man(b1-4)GlcNAc(b1-4)GlcNAc
# Summary of the method: as §1
binder,measurement,setting,value
B1,glycan array binding signal (z-score),[1],-0.87
same,glycan array binding signal (z-score),[2],0.569
same,glycan array binding signal (z-score),[3],-0.421
same,glycan array binding signal (z-score),[4],-0.769
same,glycan array binding signal (z-score),[5],0.018
same,glycan array binding signal (z-score),[6],-0.793
same,glycan array binding signal (z-score),[7],-0.407
same,glycan array binding signal (z-score),[8],0.306
same,glycan array binding signal (z-score),[9],-0.623
same,glycan array binding signal (z-score),[10],-0.343
same,glycan array binding signal (z-score),[11],0.578
same,glycan array binding signal (z-score),[12],-0.296
same,glycan array binding signal (z-score),[13],-0.21
same,glycan array binding signal (z-score),[14],0.232
same,glycan array binding signal (z-score),[15],-0.498
same,glycan array binding signal (z-score),[16],-0.422
same,glycan array binding signal (z-score),[17],1.07
same,glycan array binding signal (z-score),[18],0.085
same,glycan array binding signal (z-score),[19],-0.742
same,glycan array binding signal (z-score),[20],-0.412
same,glycan array binding signal (z-score),[21],-0.471
same,glycan array binding signal (z-score),[22],-0.847
same,glycan array binding signal (z-score),[23],-0.724
same,glycan array binding signal (z-score),[24],1.31
same,glycan array binding signal (z-score),[25],1.21
same,glycan array binding signal (z-score),[26],-0.54
same,glycan array binding signal (z-score),[27],-0.375
same,glycan array binding signal (z-score),[28],1.75
same,glycan array binding signal (z-score),[29],0.174
same,glycan array binding signal (z-score),[30],-0.161
same,glycan array binding signal (z-score),[31],0.336
same,glycan array binding signal (z-score),[32],-0.475
same,glycan array binding signal (z-score),[33],-0.208
same,glycan array binding signal (z-score),[34],0.261
same,glycan array binding signal (z-score),[35],1.32
same,glycan array binding signal (z-score),[36],-0.608
same,glycan array binding signal (z-score),[37],1.62

# 7 entries from above, reformatted:
binder | measurement | setting | value
B1 | glycan array binding signal (z-score) | [1] | -0.87
same | glycan array binding signal (z-score) | [18] | 0.085
same | glycan array binding signal (z-score) | [19] | -0.742
same | glycan array binding signal (z-score) | [23] | -0.724
same | glycan array binding signal (z-score) | [29] | 0.174
same | glycan array binding signal (z-score) | [32] | -0.475
same | glycan array binding signal (z-score) | [36] | -0.608
